PMC7093472
No constants are given. Whether binding was seen depends on the method and setting. In cells and extracts the contact can be indirect. Some binding calls cover weakened binding; strength is not graded here.

Chains of the proteins cited; added tags and fusions are not shown.
UniProt Q96EB6: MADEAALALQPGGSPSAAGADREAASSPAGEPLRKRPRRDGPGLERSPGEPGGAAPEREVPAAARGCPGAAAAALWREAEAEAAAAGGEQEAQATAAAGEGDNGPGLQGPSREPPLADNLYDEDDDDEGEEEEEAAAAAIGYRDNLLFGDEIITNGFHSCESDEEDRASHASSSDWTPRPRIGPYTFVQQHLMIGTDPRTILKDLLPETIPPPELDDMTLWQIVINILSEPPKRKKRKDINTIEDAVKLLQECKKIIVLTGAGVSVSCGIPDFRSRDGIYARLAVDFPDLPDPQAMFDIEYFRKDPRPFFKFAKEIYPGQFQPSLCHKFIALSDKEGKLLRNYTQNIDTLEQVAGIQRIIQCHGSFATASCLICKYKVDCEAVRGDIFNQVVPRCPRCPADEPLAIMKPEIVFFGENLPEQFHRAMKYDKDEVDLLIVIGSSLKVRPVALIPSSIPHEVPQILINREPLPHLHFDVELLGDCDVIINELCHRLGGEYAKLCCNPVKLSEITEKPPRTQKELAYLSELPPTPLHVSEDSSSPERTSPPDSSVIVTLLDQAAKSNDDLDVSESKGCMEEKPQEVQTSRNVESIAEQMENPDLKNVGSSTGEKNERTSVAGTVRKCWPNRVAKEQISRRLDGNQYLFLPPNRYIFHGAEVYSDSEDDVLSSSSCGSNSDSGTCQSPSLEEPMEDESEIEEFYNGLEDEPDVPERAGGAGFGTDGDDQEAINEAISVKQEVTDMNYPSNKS
UniProt P03372: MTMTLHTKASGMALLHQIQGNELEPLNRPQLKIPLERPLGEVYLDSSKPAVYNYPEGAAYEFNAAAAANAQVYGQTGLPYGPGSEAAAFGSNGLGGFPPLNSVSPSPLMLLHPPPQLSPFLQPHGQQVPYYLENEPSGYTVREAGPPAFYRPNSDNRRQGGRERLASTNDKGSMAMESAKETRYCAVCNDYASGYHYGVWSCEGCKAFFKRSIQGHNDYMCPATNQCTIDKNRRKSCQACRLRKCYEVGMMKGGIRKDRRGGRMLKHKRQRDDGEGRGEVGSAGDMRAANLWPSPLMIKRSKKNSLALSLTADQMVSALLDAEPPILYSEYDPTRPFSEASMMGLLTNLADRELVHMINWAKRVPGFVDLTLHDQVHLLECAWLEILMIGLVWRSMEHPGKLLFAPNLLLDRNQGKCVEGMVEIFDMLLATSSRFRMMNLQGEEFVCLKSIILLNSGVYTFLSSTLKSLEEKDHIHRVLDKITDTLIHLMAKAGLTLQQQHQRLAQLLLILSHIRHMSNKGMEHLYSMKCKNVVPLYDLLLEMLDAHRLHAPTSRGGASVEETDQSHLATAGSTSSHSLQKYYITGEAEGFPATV
UniProt Q92731: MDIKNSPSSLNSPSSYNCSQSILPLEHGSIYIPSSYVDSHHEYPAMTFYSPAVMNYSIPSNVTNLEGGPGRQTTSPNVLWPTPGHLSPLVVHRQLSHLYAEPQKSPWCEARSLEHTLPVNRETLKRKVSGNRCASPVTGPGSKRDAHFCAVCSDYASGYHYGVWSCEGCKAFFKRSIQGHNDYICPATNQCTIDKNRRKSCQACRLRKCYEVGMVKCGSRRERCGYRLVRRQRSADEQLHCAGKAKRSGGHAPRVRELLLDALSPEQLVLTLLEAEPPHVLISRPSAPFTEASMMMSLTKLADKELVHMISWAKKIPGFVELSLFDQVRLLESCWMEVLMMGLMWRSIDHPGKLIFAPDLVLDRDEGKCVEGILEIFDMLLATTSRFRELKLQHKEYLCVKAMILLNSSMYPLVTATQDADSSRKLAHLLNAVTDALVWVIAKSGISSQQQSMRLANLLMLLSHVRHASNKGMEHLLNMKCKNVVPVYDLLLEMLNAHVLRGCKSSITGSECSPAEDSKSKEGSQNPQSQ

What was measured:
[1] = target: GST-SIRT1 (silent information regulator 2 homologue 1) (human) (UniProt Q96EB6); assay: pull-down; GST-SIRT1 immobilized on glutathione sepharose beads, 35S-labelled in vitro translated ERα or ERβ in solution; 20 mM HEPES pH 7.5, 150 mM NaCl, 0.1 mM EDTA, 10% glycerol, 0.05% NP-40; 2 h at 4 °C; with 0.1% DMSO, 1 µM E2, 100 µM of the dSTACs or various concentrations of resveratrol; fluorography; only the target purified
[2] = target: GST-SIRT1 (silent information regulator 2 homologue 1) (human) (UniProt Q96EB6); assay: pull-down; as a1, with 100 µM resveratrol (highest dose of the series in Figure 4); only the target purified

binding [1] | binding [2] | Substance
binds | binds weakly | oestrogen receptor alpha (ERα), in vitro translated (from UniProt P03372 1-595)
binds weakly | – | oestrogen receptor beta (ERβ), in vitro translated (from UniProt Q92731 1-530)
